These results are taken from paper PMC4743000.

Chains of the proteins cited; added tags and fusions are not shown.
UniProt Q9UNN5: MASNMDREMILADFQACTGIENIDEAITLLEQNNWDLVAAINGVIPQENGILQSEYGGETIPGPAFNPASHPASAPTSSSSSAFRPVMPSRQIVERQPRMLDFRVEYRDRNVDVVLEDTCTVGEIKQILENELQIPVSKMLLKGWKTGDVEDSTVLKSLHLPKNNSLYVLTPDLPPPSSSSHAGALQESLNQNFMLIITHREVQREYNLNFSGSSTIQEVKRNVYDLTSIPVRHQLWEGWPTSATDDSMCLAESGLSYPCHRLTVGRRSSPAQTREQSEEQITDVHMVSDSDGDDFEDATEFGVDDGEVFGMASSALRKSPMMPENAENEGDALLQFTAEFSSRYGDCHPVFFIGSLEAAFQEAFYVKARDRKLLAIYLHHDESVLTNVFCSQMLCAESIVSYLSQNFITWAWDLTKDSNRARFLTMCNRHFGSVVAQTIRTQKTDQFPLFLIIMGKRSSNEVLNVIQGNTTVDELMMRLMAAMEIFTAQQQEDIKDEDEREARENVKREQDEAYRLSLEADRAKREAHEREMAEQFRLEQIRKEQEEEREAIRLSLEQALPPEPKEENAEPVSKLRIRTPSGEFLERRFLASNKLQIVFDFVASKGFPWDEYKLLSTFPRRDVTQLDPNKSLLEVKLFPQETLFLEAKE

The assay has as its target HA-tagged FAF1 (FAS-associated factor 1) (human) (UniProt Q9UNN5). Kind of assay: co-IP; anti-HA agarose beads with nuclear lysates of HEK293 cells expressing HA-FAF1 and the doxycycline-induced p97 substrate trap variant; 3 h at 4 °C; IP buffer 50 mM Tris pH 8.0, 150 mM NaCl, 0.05% NP-40; western blot. For orientation: Immunoblotting shows a protein as a band on a membrane.

No constants are given. Whether binding was seen depends on the method and setting. In cells and extracts the contact can be indirect. Some results given as binding are weak or reduced against the parent protein; the word gives no strength.

B1: CDT-1 (human) (protein, UniProt Q9H211 1-546)
chain: MEQRRVTDFFARRRPGPPRIAPPKLACRTPSPARPALRAPASATSGSRKRARPPAAPGRDQARPPARRRLRLSVDEVSSPSTPEAPDIPACPSPGQKIKKSTPAAGQPPHLTSAQDQDTISELASCLQRARELGARVRALKASAQDAGESCTPEAEGRPEEPCGEKAPAYQRFHALAQPGLPGLVLPYKYQVLAEMFRSMDTIVGMLHNRSETPTFAKVQRGVQDMMRRRFEECNVGQIKTVYPASYRFRQERSVPTFKDGTRRSDYQLTIEPLLEQEADGAAPQLTASRLLQRRQIFSQKLVEHVKEHHKAFLASLSPAMVVPEDQLTRWHPRFNVDEVPDIEPAALPQPPATEKLTTAQEVLARARNLISPRMEKALSQLALRSAAPSSPGSPRPALPATPPATPPAASPSALKGVSQDLLERIRAKEAQKQLAQMTRCPEQEQRLQRLERLPELARVLRSVFVSERKPALSMEVACARMVGSCCTIMSPGEMEKHLLLLSELLPDWLSLHRIRTDTYVKLDKAADLAHITARLAHQTRAEEGL
Turning to B1, the binding result is given as “binds”.
